Results taken from publication PMC7648202.

Columns and labels:
[1] = biological target: T1, TCMP‐2::nYFP (rBiFC, pBiFCt‐2in1) (tomato (Solanum lycopersicum)) (UniProt P14903); experiment: split reporter; ratiometric BiFC (pBiFCt-2in1, mRFP as reference) in agroinfiltrated N. tabacum epidermal cells; complemented YFP vs. RFP ratio, seven independent cells for each combination
T1 sequence: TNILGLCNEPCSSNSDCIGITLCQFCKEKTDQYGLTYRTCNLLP

[2] = biological target: T2, nYFP::TCMP‐2 (rBiFC, pBiFCt‐2in1) (tomato (Solanum lycopersicum)) (UniProt P14903); experiment: as above
T2 sequence: T1 sequence

[3] = biological target: T3, mature TCMP‐2 protein fused to the GAL4 DNA‐binding domain (pGBKT7‐BD) (tomato (Solanum lycopersicum)) (UniProt P14903); experiment: two-hybrid; Matchmaker Gold system; bait GAL4 BD fusion in Y2H Gold, prey AD fusions in Y187, mated; 30°C for 3 days; selection on SD/-Leu/-Trp/-His/-Ade/X-Gal/Aureobasidin A plus 10 mM 3-AT
T3 sequence: T1 sequence

[4] = biological target: T4, mature TCMP‐2 fused with the N‐terminus of YFP (nYFP), pCAMBIA1300 (tomato (Solanum lycopersicum)) (UniProt P14903); experiment: split reporter; BiFC with nYFP and cYFP fusions (pCAMBIA1300), transient co-infiltration of Nicotiana tabacum leaves; confocal microscopy 36-48 hr later
T4 sequence: T1 sequence

BBX16::cYFP (rBiFC, pBiFCt‐2in1) (tomato (Solanum lycopersicum))
binding [1]: binds weakly | binding [2]: binds weakly

SlBBX16 full‐length ORF fused to the Gal4‐activation domain (pGADT7‐AD) (tomato (Solanum lycopersicum))
binding [3]: binds

SlBBX16 fused with the C‐terminus of YFP (cYFP), pCAMBIA1300 (tomato (Solanum lycopersicum))
binding [4]: binds

SlCO1 full‐length ORF fused to the Gal4 activation domain (pGADT7‐AD) (tomato (Solanum lycopersicum))
binding [3]: no binding

Results are given in words; binding and its absence hold for the method and conditions named. Binding can be weak; no strength is given. Tags and fused reporters may be left off the sequences shown. For some assays here: Binding seen in cells or lysates may run through a third protein.
